The results in this text go back to article PMC6548137.

Amino acid sequences for entries named in this document (tags omitted). A change or cut given only in a name is not applied to a line headed by its entry.
UniProt P63241: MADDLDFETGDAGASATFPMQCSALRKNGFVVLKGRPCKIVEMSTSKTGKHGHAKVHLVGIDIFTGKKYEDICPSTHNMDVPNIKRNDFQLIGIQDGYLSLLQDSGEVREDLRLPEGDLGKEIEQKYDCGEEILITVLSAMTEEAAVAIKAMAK
UniProt Q9ESJ0: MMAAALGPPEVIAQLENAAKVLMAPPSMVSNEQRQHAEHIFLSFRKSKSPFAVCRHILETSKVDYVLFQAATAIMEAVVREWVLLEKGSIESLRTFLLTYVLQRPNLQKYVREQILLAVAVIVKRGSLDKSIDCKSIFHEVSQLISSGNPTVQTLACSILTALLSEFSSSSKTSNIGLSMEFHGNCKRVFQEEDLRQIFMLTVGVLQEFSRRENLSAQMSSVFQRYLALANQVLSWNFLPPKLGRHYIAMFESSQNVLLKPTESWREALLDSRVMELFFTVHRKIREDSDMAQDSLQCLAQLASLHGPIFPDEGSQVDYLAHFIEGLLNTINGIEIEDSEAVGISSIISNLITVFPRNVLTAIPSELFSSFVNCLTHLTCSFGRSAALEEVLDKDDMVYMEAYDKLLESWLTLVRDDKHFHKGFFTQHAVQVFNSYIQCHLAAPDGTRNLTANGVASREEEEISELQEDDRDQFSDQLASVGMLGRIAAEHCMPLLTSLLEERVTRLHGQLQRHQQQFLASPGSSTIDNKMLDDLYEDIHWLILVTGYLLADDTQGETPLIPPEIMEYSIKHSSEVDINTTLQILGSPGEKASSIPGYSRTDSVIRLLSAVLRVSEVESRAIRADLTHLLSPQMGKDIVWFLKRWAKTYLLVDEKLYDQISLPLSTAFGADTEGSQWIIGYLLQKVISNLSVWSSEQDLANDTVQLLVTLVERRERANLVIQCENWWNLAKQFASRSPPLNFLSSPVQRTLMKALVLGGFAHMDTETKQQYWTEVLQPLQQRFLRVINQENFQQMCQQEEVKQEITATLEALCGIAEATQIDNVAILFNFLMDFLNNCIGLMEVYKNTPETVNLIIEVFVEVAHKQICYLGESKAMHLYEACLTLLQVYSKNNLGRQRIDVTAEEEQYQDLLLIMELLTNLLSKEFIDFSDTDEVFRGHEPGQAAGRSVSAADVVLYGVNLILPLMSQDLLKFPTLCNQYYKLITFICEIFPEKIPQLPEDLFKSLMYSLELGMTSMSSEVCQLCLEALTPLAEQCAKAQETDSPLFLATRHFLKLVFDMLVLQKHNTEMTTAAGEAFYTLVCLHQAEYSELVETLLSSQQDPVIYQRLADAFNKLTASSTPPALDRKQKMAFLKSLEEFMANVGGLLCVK

Assay [1] has as its target T1, Pdr6/Kap122 (S. cerevisiae), full length, tag removed (S. cerevisiae) (UniProt P32767).
T1 sequence: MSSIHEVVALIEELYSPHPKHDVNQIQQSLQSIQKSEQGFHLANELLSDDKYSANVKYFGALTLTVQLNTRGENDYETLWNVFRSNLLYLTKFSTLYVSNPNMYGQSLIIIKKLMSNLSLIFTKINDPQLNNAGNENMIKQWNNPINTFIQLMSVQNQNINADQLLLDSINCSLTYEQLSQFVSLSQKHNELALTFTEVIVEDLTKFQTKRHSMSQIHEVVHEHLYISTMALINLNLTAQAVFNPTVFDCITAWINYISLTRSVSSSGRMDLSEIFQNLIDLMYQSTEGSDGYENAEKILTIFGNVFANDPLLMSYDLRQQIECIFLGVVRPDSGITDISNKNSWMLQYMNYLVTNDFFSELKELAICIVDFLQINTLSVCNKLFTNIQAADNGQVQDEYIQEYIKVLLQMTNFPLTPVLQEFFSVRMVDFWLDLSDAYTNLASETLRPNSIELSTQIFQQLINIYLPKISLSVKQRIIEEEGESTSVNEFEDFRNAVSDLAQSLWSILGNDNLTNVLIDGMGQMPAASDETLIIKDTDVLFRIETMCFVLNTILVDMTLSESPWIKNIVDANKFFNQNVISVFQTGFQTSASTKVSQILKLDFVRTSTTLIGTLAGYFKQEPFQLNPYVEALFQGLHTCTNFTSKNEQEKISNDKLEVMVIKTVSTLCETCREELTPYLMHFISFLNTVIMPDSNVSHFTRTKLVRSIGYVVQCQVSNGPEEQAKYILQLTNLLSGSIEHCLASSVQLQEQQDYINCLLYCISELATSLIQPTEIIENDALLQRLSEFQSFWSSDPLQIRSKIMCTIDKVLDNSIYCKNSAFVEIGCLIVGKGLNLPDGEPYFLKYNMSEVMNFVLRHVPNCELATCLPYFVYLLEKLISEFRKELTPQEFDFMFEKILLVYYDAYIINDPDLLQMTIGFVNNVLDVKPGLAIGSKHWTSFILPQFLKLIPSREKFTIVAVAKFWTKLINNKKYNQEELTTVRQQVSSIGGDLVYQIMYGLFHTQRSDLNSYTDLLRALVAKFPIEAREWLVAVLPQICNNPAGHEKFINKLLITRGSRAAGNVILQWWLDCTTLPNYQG
Description: crystal structure; RanGTP•Pdr6•eIF5A, 18°C, microseeding, 100 mM sodium acetate pH 5.3, 30% PEG 300; both purified.

Assay [2] deals with ZZ-bdSUMO-tagged eIF5A H51A (not stated (human or S. cerevisiae eIF5A made)) (UniProt P63241). Description: pull-down; 1 µM NTR and RanGTP with 0.75 µM ZZ-bdSUMO-tagged eIF5A wild type or mutants; 20 mM Tris/HCl pH 7.7, 100 mM NaCl (legend: 50 mM NaCl), 2 mM MgOAc, 2 mM DTT; retrieved via tagged eIF5A by anti-Protein A beads, eluted by bdSENP1 protease, SDS-PAGE and Coomassie; both purified.

Assay [3] concerns the target ZZ-bdSUMO-tagged eIF5A K50A (not stated (human or S. cerevisiae eIF5A made)) (UniProt P63241). The assay is described as above.
The target in assay [4] is ZZ-bdSUMO-tagged eIF5A R62E (not stated (human or S. cerevisiae eIF5A made)) (UniProt P63241). Described as above.
The target in assay [5] is ZZ-bdSUMO-tagged eIF5A S75R (not stated (human or S. cerevisiae eIF5A made)) (UniProt P63241). Described as above.
Assay [6] deals with ZZ-bdSUMO-tagged eIF5A wild type (not stated (human or S. cerevisiae eIF5A made)) (UniProt P63241). The description is as above.
Assay [7] has as its target ZZ-bdSUMO-tagged eIF5A E42R (not stated (human or S. cerevisiae eIF5A made)) (UniProt P63241). Described as above.
In assay [8] the target is T2, H14-ZZ-bdSUMO-tagged Pdr6 (S. cerevisiae) (UniProt P32767).
T2 sequence: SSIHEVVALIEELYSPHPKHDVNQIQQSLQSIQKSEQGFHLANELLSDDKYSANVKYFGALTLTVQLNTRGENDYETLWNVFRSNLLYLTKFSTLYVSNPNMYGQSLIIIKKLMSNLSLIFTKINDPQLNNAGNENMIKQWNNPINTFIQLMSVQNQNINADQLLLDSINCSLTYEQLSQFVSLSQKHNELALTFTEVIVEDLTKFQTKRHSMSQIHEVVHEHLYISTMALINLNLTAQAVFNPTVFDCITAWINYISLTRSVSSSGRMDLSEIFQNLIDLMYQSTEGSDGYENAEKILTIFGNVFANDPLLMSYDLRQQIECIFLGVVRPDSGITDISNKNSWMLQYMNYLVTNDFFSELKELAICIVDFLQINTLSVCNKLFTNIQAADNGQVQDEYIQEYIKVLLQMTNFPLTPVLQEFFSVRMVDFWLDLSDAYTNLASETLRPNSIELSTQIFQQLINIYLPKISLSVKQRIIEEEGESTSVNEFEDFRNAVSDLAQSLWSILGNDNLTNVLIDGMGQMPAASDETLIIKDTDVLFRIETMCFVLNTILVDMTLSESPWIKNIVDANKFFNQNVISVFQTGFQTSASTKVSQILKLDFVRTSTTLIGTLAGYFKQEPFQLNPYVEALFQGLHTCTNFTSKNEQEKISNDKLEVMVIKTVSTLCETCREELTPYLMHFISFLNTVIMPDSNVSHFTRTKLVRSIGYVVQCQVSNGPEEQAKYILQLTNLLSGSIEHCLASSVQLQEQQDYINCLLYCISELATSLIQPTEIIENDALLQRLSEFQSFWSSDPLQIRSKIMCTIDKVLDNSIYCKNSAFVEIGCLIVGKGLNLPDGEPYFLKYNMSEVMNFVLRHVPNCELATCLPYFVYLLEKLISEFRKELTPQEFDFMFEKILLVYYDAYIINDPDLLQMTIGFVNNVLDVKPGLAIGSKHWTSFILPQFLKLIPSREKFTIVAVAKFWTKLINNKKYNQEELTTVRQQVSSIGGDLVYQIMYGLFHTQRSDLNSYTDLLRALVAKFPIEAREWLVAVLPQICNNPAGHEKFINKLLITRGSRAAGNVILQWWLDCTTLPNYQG
Description: pull-down; 1 µM H14-ZZ-bdSUMO-tagged NTR with 2 µM human or yeast eIF5A in the presence of 2 µM RanGTP; retrieved via the tagged NTR by anti-Protein A beads, eluted by bdSENP1 protease, SDS-PAGE and Coomassie; both purified.

Results are given in words; binding and its absence hold for the method and conditions named. A result given as binding can be weak or reduced; the word gives no strength. For some assays here: Where a sequence is shown, tags or fusion partners need not be part of it.

As for “S. cerevisiae eIF5A lacking its 15 N-terminal residues, nonmodified form (domain or fragment)”, the binding entry in assay [1] was “binds”.

With “Pdr6/Kap122 (S. cerevisiae), full length, tag removed (from UniProt P32767 1-1081)”, the binding result in assay [2], in assay [3], in assay [4], in assay [5] and in assay [6] was “binds” in each case.

Consider “mouse Xpo4 (NTR of the eIF5A mutant tests) (from UniProt Q9ESJ0 1-1151)”, for which the binding result in assay [7] is “binds”; in assay [2], “no binding (tested: 1 µM NTR and RanGTP, 0.75 µM eIF5A)”; in assay [4], “no binding (tested: 1 µM NTR and RanGTP, 0.75 µM eIF5A)”; in assay [5] it was “no binding (tested: 1 µM NTR and RanGTP, 0.75 µM eIF5A)”.

Turning to “yeast eIF5A (eIF5A compatibility assay) (S. cerevisiae)”, the binding result in assay [8] is recorded as “binds”.
